For the test, the system named is primary mouse Muller glia with Ascl1 overexpression. The experiment in a line: total cells recovered per well; higher = more cells recovered. The conditions noted are these: collection day: 2. As for the experimental part:
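Primary P11 mouse Muller glia carrying dox-inducible Ascl1 were treated with Tocriscreen Stem Cell Library compounds at 0.1, 1 or 10 uM together with doxycycline for 5 days, then profiled by sci-Plex hashing and sci-RNA-seq2. Cells were annotated by marker genes and cell-type counts per well were size-factor adjusted. Read-outs are the log2 fold change of Neuronal (NeuPre + bipolar) and ProL cell counts versus the Ascl1-only control wells of the same collection day, plus the raw number of recovered cells per well. There is one well per dose, and wells with fewer than 20 cells were discarded.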

Where a name gives a salt, the structure may show the parent alone. Some of the results follow. Repeats are few or missing, and single values can be far off.

Take `COc1ccc(N(C(=O)Oc2c(C)cccc2C)c2ccnc(Nc3ccc(N4CCN(C)CC4)cc3)n2)c(OC)c1`: the “total cells recovered per well” value (0.1 µM) was determined as 74 and the “total cells recovered per well” value (1 µM) was determined as 50.
Consider `N[C@@H]1C[C@H]1c1ccccc1` [Tranylcypromine hydrochloride], for which the “total cells recovered per well” value was found to be 104 (0.1 µM), 99 (1 µM) and 116 (10 µM).
On to `Cc1sc2c(c1C)C(c1ccc(Cl)cc1)=N[C@@H](CC(N)=O)c1nnc(C)n1-2`, for which the “total cells recovered per well” value reads like this: (0.1 µM) 94; (1 µM) 78; (10 µM) 49.

Source of the values: the supplement of paper PMC11637464.
